Laboratory results reported in PMC5095532.
No constants are given. Whether binding was seen depends on the method and setting. Binding seen in cells or lysates may run through a third protein. Some binding calls cover weakened binding; strength is not graded here.

Molecular target: poly ADP-ribose polymerase 14 (PARP14) (UniProt Q460N5)
Test: co-IP; 100 ug of cell lysate protein (IP lysis buffer) incubated with PARP14 antibody (5 ug) and Dynabeads streptavidin, rotation overnight at 4 °C; three washes with PBS/Tween 20 (0.02%); SDS-PAGE and western blot

binding: binds
Substance: PARP9 (from UniProt Q8IXQ6 1-854) (other; other documents disagree on this pair)
